Laboratory results: publication PMC9342900, “Cryo-EM structures of the Synechocystis sp. PCC 6803 cytochrome b6f complex with and without the regulatory PetP subunit” (Biochemical Journal, 2022)
These are yes or no findings as the source states them, for the method shown. Binding seen in cells or lysates may run through a third protein. A result given as binding can be weak or reduced; the word gives no strength. Sequences can lack the tags named with a protein.

Target: T1, N-terminally hexa-Histidine (His)-tagged PetP (Synechocystis sp. PCC 6803) (UniProt P72798)
T1 sequence: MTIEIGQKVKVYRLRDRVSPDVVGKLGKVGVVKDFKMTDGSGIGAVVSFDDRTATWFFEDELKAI
Test: pull-down; Synechocystis thylakoids (solubilized) applied to Ni2+-NTA agarose columns functionalized with His-PetP; washed and eluted as for purified cytb6f; control columns without His-PetP; only the target purified

With “cytochrome b6f complex in solubilized Synechocystis thylakoid membranes” the binding was “binds”.
